Experimental data: PubChem BioAssay AID1259254 (NCATS, 2017)
Assay: 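Gene knock-downs that lead to re-replication, shown by excess G2 DNA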 (primary screen). System: human HCT116 colorectal cancer cells. Reagents: single siRNA against human genes. Duration: 3 days. Measurement: 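Nuclei stained with Hoechst and imaged; cell-cycle phase assigned by DNA content; G2 share scaled per plate, non-targeting siRNA 0%, GMNN siRNA 100%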. Direction: G2 robust z-score: higher = more G2 cells, more excess DNA replication. Call rule: 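An siRNA counts as active if its G2 robust z-score lies at least 5 MADs above the screen median; here such calls match roughly 38% of GMNN control or more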.
This is an unselected part of about 59,000 reagents tested. About 1,550 of all reagents (2.6%) were called active. 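G2 share is only a proxy for re-replication; each gene was hit by three separate siRNAs, and active genes were retested.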 Reagents against one gene are numbered here. Not all columns of the deposit are shown. Not stated in the record: the amount of reagent.

The opening 2 entries, ahead of the listing:
LOC400756 (retired record) #1 — G2 robust z-score: -0.447; outcome: inactive
LOC400756 (retired record) #2 — G2 robust z-score: 1.75; outcome: inactive

Main list, from the first entry:
LOC400756 (retired record) #1 — G2 robust z-score: -0.447; outcome: inactive
LOC400756 (retired record) #2 — G2 robust z-score: 1.75; outcome: inactive
LOC400756 (retired record) #3 — G2 robust z-score: -0.155; outcome: inactive
ZMYM5 #1 — G2 robust z-score: -0.845; outcome: inactive
ZMYM5 #2 — G2 robust z-score: -0.246; outcome: inactive
ZMYM5 #3 — G2 robust z-score: -0.811; outcome: inactive
CYB561 #1 — G2 robust z-score: 2.2; outcome: inactive
CYB561 #2 — G2 robust z-score: 1.46; outcome: inactive
CYB561 #3 — G2 robust z-score: -0.61; outcome: inactive
PHF20 #1 — G2 robust z-score: -0.569; outcome: inactive
PHF20 #2 — G2 robust z-score: -0.214; outcome: inactive
PHF20 #3 — G2 robust z-score: 1.89; outcome: inactive
